This note sets out measurements from patent US20220153746A1, “NITROGEN OXIDE-DONATING PDE-5 AND/OR PDE-6 INHIBITOR COMPOUNDS, AND USES THEREOF” (ILDONG PHARMACEUTICAL CO., LTD., priority 2020, published 2022).

This series in a line: TD Phase (Groups 1 and 3): plasma and ocular tissue concentrations and pharmacokinetics of Compound 18 and its metabolite Compound 4 after once daily ocular instillation of Compound 18 nanosuspension for 7 days. It is filed as in vivo, New Zealand white rabbits. Particulars: individual animals; for Final Compound 18 Trabecular Meshwork Conc.: BQL set to 0; for Compound 18 Sclera/Choroid Homogenate Conc.: homogenate dilution factor 8; for Compound 18 Trahecular Meshwork Homogenate Conc.: homogenate dilution factor 20. The text has this: This example illustrates the procedures and results for the levels of Compound 18 and its metabolite Compound 4 in plasma and ocular tissues of normotensive rabbits following ocular instillation of Compound 18 once daily for 7 consecutive days.
Twenty five (25) male New Zealand white rabbits were divided into 5 groups of varying amounts of animals per group.
The Test article, Compound 18 was formulated as a 2% nanosuspension in DI water containing 0.2% PS80 (polyoxyethylenesorbitan, monooleate (Tween 80)) and 0.4% HPMC (hydroxypropylmethylcellulose) at pH 6.77. Referred to herein as “Compound 18 nanosuspension.”
The study consisted of three groups (Groups 1-3) of 19 male rabbits (NZW) that underwent once daily morning ocular installation (1 eyedrop) for 7 consecutive days (Day 0-6). Groups 4-5 each consisted of 3 male rabbits (NZW) that were not dosed.
Blood samples (1 mL) were collected from the jugular vein at the intervals set out below for each group. The samples were then inverted several times following collection and held on wet ice until centrifuged. Samples were centrifuged within 60 minutes of collection under refrigeration (set at 5° C. for 10 minutes at 2000 g.
Group 1 (Pilot Study, terminal blood collection): blood was collected from 3 animals at 1 hour post day 7 dose of Compound 18 nanosuspension.
Group 3 (TD Phase, terminal blood collection): blood was collected from 3 animals at 0.5 hour, 3 animals at 2 hours, 3 animals at 4 hours, and 3 animals at 8 hours post day 7 dose of Compound 18 nanosuspension.
Group 1 (Pilot Study): 3 animals were terminated at 1 hour post Day 7 dose of Compound 18 nanosuspension. Following blood collection and termination, ocular tissues (aqueous humor, vitreous humor, cornea, iris/ciliary body, lens, optic nerve, retina, sclera/choroid, and trabecular meshwork) were collected from each animal and the tissue weights were recorded. Note: sclera and choroid were collected together. Iris and ciliary body were collected together.
Group 3 (TD Phase): 3 animals were terminated at 0.5 hour, 3 animals at 2 hours, 3 animals at 4 hours, and 3 animals at 8 hours post Day 7 dose of Compound 18 nanosuspension. Following blood collection and termination, ocular tissues (aqueous humor, vitreous humor, cornea, iris/ciliary body, lens, optic nerve, retina, sclera/choroid, and trabecular meshwork) were collected from each animal and the tissue weights were recorded. Note: sclera and choroid were collected together. Iris and ciliary body were collected together.
Plasma and tissue samples from treated animals (Groups 1-3) were analyzed for Compound 18 and its metabolite Compound 4 concentrations by LC-MS/MS.
Pharmacokinetic analysis was conducted using WinNonlin Version 6.2.1 (Pharsight, Mountain View, Calif.), operating as a validated software system. Noncompartmental analysis was conducted using the extravascular administration model for ocular instillation dosing.
The peak plasma and ocular tissue concentration, time to achieve peak plasma and ocular tissue concentration, half-life, and area under the plasma and ocular tissue concentration-time curve (Cmax, Tmax, T1/2, and AUC) were calculated from the TD phase combined with the pilot study mean animal plasma and ocular tissue concentrations for each sampling time/dose group for Compound 18 and its metabolite Compound 4.
BA Assay: Quantitation Range 0.05 to 100 ng/mL for Compound 18, 0.15 to 100 ng/mL for Compound 4.
3. Pipet 50 μL of each type of pre-spiked ocular tissue samples (AH/VH) for QC samples, 50 μL of incurred aqueous humor, and vitreous humor sample (if applicable) into a 96 well plate.
Ocular Tissues Homogenate Preparation: Incurred rabbit ocular tissues were weighed in Genogrinder tubes (plastic tubes with small beads) at the time of removal from the animal and stored frozen (<−70° C.) until analysis. The rabbit incurred ocular tissues were thawed on wet ice. […]

Several values for one entry are separate records, joined by “and”; a condition that tells them apart may be missing. Equal values may be shown once. The source gives many values for each of these; only a part stands here.

`CCCc1nn(C)c2c(=O)[nH]c(-c3cc(S(=O)(=O)N4CC(CCCO[N+](=O)[O-])C4)ccc3OCC)nc12` [Compound 18, 3-(1-((4-ethoxy-3-(1-methyl-7-oxo-3-propyl-6,7-dihydro-1H-pyrazolo[4,3-d]pyrimidin-5-yl)phenyl)sulfonyl)azetidin-3-yl)propyl nitrate]: the “Final Compound 18 Sclera/Choroid Conc.” value was 44.6 ng/g and 60.1 ng/g (Group 1, 1 h); 31.4 ng/g and 674 ng/g and 31.9 ng/g (Group 3, 2 h); 63.4 ng/g and 20.6 ng/g and 640 ng/g (Group 3, 4 h); 16.2 ng/g and 31.8 ng/g and 32.5 ng/g (Group 3, 8 h). In addition, the “Final Compound 18 Trabecular Meshwork Conc.” value (Group 1, 1 h) was 0 ng/g and 15.7 ng/g and 7.32 ng/g; the “Final Compound 18 Trabecular Meshwork Conc.” value (Group 3, 0.5 h) was 2.92 ng/g and 0 ng/g and 18.1 ng/g; the “Final Compound 18 Trabecular Meshwork Conc.” value (Group 3, 2 h) is 1.78 ng/g and 3.58 ng/g and 0 ng/g; the “Final Compound 18 Trabecular Meshwork Conc.” value (Group 3, 4 h) is 4.62 ng/g and 3.24 ng/g and 8.70 ng/g; the “Final Compound 18 Trabecular Meshwork Conc.” value (Group 3, 8 h) is 0 ng/g and 4.74 ng/g and 1.06 ng/g. The “Compound 18 Sclera/Choroid Homogenate Conc.” value is 5.57 ng/mL and 7.51 ng/mL (Group 1, 1 h); 3.93 ng/mL and 84.2 ng/mL and 3.99 ng/mL (Group 3, 2 h); 7.93 ng/mL and 2.57 ng/mL and 80.0 ng/mL (Group 3, 4 h); 2.02 ng/mL and 3.97 ng/mL and 4.06 ng/mL (Group 3, 8 h). The “Compound 18 Trahecular Meshwork Homogenate Conc.” value runs as follows: (Group 1, 1 h) 0.785 ng/mL and 0.366 ng/mL; (Group 3, 0.5 h) 0.146 ng/mL and 0.907 ng/mL; (Group 3, 2 h) 0.0890 ng/mL and 0.179 ng/mL; (Group 3, 4 h) 0.231 ng/mL and 0.162 ng/mL and 0.435 ng/mL; (Group 3, 8 h) 0.237 ng/mL and 0.0532 ng/mL.
